Experimental data from the supplement of paper PMC10849652.
This is one part of the list.

The chains behind the UniProt entries cited, without tags or fusion partners. Where a name states a change or a piece, a line headed by the entry shows the natural chain unless it says otherwise.
UniProt Q16527: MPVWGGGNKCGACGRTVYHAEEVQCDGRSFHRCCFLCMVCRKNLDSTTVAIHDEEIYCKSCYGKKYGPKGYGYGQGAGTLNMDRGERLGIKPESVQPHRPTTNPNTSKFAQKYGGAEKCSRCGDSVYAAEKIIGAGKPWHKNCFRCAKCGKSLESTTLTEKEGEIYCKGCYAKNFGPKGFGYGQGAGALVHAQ
UniProt Q14999: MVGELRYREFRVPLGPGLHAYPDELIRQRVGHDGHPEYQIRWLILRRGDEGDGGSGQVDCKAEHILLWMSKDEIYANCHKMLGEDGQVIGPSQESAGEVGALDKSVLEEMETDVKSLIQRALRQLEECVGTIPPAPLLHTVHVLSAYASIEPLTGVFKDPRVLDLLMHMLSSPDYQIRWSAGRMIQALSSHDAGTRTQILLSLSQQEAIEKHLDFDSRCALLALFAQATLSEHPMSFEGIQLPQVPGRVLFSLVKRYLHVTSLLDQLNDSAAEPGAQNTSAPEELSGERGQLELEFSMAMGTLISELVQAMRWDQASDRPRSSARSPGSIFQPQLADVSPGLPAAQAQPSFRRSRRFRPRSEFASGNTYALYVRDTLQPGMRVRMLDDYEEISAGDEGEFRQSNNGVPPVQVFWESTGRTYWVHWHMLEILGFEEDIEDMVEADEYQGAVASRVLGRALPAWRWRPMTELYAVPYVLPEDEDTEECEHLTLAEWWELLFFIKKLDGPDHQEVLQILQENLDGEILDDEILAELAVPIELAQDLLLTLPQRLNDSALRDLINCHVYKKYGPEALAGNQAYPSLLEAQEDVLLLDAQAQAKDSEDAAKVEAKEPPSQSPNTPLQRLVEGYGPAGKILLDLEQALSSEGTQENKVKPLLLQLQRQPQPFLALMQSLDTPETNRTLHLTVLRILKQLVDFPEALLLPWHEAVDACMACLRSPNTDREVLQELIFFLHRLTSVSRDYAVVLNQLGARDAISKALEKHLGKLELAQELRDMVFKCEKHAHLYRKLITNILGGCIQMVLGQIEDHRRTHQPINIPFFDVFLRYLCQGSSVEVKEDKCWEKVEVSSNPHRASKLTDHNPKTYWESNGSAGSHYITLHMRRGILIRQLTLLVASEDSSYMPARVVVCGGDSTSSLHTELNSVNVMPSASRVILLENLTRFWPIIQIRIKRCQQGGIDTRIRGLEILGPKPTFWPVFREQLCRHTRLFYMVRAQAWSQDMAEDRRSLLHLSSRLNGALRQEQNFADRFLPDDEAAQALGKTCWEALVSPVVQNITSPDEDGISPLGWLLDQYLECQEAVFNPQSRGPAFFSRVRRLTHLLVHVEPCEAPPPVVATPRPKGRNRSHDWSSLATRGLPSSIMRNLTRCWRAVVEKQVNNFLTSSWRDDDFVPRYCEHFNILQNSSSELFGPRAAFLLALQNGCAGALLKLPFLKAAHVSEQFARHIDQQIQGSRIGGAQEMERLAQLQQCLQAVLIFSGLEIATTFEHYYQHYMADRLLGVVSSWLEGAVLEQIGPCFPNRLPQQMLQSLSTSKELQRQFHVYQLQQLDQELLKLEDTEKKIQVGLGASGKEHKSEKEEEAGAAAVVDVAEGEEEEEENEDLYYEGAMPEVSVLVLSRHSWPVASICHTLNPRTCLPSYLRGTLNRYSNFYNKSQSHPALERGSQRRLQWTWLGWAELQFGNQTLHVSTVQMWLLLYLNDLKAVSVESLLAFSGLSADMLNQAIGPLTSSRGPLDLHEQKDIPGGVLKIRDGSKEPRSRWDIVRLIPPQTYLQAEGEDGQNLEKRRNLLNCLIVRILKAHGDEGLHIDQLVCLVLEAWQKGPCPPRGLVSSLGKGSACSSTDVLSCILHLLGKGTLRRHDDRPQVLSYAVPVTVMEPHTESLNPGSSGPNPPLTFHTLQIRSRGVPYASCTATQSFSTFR
UniProt Q99418: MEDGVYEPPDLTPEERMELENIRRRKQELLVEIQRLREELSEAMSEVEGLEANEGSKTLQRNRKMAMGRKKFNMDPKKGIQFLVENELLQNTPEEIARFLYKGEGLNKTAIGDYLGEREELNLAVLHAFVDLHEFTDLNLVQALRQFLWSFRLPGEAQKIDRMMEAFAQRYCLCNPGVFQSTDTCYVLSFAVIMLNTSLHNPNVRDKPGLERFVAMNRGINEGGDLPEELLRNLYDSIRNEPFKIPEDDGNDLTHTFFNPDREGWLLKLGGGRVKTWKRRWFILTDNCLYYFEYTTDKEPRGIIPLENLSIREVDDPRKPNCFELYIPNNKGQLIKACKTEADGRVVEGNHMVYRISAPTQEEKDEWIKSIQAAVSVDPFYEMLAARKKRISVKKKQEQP
UniProt Q9BTE7: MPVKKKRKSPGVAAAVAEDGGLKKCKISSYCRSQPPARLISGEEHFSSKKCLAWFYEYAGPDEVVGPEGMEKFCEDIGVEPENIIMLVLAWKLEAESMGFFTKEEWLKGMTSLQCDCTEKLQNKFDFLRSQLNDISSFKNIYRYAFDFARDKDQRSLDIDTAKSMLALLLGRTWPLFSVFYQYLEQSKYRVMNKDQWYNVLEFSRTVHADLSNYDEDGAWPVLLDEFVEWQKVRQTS
UniProt P49447: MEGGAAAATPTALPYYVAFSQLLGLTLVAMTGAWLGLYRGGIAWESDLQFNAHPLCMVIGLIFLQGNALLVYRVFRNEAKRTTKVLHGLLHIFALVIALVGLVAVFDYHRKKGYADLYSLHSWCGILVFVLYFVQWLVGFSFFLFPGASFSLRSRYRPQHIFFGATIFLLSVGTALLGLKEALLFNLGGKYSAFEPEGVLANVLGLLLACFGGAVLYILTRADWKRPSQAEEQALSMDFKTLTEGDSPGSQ
UniProt Q07973: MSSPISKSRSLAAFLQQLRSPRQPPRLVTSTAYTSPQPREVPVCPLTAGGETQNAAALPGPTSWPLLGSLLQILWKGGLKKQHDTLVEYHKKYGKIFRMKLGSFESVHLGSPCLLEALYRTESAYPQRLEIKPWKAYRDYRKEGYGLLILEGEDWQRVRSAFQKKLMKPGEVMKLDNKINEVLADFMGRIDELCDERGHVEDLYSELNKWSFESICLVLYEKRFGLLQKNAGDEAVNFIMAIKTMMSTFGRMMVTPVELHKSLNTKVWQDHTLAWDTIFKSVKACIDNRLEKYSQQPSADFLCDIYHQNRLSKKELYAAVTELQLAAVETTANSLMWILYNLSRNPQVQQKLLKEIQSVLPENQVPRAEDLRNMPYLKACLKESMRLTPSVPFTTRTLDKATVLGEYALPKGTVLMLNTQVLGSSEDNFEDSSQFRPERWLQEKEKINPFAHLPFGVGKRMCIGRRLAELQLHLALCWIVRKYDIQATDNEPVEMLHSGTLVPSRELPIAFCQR
UniProt Q6ZWL3: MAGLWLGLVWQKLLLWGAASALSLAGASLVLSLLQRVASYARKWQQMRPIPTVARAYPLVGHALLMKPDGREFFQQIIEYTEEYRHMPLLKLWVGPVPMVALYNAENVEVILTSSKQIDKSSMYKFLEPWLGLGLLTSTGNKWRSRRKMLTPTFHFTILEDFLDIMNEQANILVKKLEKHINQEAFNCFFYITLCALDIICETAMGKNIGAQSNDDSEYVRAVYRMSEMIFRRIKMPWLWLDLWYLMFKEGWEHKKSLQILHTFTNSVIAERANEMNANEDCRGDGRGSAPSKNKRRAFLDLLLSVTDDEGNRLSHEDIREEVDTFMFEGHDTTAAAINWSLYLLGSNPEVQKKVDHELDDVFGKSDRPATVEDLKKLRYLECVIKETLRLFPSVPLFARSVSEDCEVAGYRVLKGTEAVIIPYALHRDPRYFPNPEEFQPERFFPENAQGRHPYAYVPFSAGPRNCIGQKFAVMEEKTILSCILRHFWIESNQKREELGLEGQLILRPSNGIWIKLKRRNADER
UniProt Q96DE9: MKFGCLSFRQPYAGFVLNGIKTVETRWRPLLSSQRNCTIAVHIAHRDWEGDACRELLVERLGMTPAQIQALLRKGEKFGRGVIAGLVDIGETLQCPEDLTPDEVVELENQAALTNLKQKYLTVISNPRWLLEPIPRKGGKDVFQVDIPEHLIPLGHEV
UniProt Q53TN4: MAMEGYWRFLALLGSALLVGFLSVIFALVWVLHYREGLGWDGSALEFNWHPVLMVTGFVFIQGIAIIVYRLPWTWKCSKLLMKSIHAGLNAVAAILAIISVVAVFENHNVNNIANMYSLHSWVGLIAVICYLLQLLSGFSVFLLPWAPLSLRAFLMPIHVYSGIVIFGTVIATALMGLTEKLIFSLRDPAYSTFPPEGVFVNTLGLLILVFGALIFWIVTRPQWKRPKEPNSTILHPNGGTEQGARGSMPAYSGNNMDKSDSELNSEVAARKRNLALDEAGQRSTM
UniProt Q86T65: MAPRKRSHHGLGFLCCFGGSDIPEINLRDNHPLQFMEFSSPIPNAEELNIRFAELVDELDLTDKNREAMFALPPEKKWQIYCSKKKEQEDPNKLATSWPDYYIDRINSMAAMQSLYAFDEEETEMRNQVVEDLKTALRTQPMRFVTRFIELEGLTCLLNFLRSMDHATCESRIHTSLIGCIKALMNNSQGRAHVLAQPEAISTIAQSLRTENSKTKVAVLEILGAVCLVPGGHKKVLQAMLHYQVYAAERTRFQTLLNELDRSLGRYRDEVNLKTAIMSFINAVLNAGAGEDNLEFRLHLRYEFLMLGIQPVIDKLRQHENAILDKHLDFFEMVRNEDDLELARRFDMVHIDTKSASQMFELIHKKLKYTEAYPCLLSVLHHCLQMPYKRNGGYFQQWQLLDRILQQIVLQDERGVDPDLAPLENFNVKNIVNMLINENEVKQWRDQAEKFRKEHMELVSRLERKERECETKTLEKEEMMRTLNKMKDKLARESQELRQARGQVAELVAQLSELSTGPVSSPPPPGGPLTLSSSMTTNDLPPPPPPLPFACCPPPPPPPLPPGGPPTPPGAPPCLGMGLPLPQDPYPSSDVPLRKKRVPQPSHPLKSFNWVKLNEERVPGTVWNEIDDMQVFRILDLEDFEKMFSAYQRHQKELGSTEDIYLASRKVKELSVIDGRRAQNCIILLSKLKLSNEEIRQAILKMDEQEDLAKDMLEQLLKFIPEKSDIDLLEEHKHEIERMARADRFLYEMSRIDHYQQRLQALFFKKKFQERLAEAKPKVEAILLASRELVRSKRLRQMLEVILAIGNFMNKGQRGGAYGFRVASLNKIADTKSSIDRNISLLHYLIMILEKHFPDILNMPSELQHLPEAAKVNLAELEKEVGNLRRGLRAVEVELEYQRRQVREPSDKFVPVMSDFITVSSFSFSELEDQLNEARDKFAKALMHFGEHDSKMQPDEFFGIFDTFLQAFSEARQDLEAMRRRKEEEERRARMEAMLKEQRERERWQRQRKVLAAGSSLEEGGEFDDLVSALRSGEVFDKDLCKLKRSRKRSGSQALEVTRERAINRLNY
UniProt Q8N8Z6: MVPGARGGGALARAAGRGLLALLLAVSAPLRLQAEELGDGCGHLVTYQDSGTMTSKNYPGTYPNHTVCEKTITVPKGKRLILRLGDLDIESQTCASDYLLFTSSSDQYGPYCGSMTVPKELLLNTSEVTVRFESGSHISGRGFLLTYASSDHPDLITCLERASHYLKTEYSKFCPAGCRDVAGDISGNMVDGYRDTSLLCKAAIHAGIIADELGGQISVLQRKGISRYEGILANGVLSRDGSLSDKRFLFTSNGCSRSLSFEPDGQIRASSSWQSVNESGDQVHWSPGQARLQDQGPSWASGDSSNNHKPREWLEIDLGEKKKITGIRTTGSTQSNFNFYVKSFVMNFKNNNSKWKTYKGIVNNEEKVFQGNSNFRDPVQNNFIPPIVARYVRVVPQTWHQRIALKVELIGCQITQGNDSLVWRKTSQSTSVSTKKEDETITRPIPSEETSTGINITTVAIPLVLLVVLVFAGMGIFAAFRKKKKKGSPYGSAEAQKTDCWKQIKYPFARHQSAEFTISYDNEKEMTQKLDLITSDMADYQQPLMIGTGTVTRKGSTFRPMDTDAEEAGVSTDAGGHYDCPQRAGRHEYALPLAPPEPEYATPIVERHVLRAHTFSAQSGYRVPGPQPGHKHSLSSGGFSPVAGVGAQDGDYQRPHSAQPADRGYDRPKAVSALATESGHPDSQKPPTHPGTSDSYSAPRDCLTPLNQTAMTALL
UniProt Q7LFL8: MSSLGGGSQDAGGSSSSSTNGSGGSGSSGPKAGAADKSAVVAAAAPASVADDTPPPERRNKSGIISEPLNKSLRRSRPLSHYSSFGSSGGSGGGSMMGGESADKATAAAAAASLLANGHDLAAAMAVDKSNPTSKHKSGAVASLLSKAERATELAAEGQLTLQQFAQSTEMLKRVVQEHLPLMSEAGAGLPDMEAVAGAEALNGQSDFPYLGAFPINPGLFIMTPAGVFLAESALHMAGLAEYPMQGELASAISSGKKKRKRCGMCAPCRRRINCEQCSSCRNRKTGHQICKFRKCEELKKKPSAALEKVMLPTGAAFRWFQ
UniProt Q9BWK5: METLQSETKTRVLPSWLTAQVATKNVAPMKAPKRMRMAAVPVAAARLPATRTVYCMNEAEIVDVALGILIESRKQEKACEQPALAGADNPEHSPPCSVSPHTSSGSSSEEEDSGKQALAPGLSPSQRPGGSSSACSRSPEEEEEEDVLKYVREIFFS

compound: Cc1cc(Nc2cc(N3CCN(C)CC3)nc(Sc3ccc(NC(=O)C4CC4)cc3)n2)n[nH]1 [tozasertib]; assay: log2 fold change, soluble protein after heating vs DMSO (PISA); higher = thermal stabilisation; K562 cells, 10 uM, 30 min; active = over 0.2 and 3.5 SD of the protein, either way, in both replicates (recomputed)
Procedure, shortened: (§1)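 K562 cells at 2×10^6 cells/mL were given 10 μM compound for 30 min. Aliquots then went through 3 min of heating across 48°C-58°C, were pooled, and were extracted in PBS with 0.5% NP-40 at 4°C, and the supernatant after 21,000xg for 90 min was quantified by TMTpro 16plex LC-MS/MS with channel sums equalised. Thermal stability relative to control samples, from duplicates, is given as log2 fold change.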

Row | Target | log2 fold change
1 | CTDNEP1 (UniProt O95476) | inactive: 0.1
2 | CYP2R1 (UniProt Q6VVX0) | inactive: 0.04
3 | CSRP2 (UniProt Q16527) | inactive: -0.032
4 | CST6 (UniProt Q15828) | inactive: 0.276
5 | CUL7 isoform 2 (UniProt Q14999) | inactive: -0.029
6 | CYTH1 (UniProt Q15438) | inactive: 0.117
7 | CTIF (UniProt O43310) | inactive: -0.108
8 | CYTH2 (UniProt Q99418) | inactive: -0.207
9 | CTDSP1 (UniProt Q9GZU7) | inactive: -0.192
10 | DCUN1D5 (UniProt Q9BTE7) | inactive: 0.092
11 | DCP1B (UniProt Q8IZD4) | inactive: -0.047
12 | CYB561 (UniProt P49447) | inactive: 0.155

compound: Cc1cc(SCc2sc(-c3ccc(C(F)(F)F)cc3)nc2C)ccc1OCC(=O)O; assay: as above
Procedure, shortened: as §1

Row | Target | log2 fold change
13 | DAAM1 (UniProt Q9Y4D1) | inactive: 0.195
14 | CTDNEP1 (UniProt O95476) | inactive: 0.179
15 | CTNNBIP1 (UniProt Q9NSA3) | inactive: 0.032
16 | CYP24A1 (UniProt Q07973) | inactive: -0.13
17 | DCAF4 (UniProt Q8WV16) | inactive: -0.056
18 | DCBLD2 isoform 2 (UniProt Q96PD2) | inactive: -0.105
19 | CYP4V2 (UniProt Q6ZWL3) | inactive: 0.005
20 | CXorf40B (UniProt Q96DE9) | inactive: 0.099
21 | CTDSPL2 (UniProt Q05D32) | inactive: 0.155
22 | CYBRD1 (UniProt Q53TN4) | inactive: 0.017
23 | DAAM2 (UniProt Q86T65) | inactive: 0.023
24 | CUL7 isoform 2 (UniProt Q14999) | inactive: 0.119
25 | DCBLD1 (UniProt Q8N8Z6) | inactive: -0.159
26 | CYTH1 (UniProt Q15438) | inactive: 0.056
27 | CYTH2 (UniProt Q99418) | inactive: -0.046
28 | CXXC5 (UniProt Q7LFL8) | inactive: -0.211
29 | CST1 (UniProt P01037) | inactive: -0.119
30 | CYB5A (UniProt P00167) | inactive: -0.023
31 | CYREN isoform 4 (UniProt Q9BWK5) | inactive: -0.183
32 | CYB561 (UniProt P49447) | inactive: -0.032

compound: Cc1ccc(-n2nc(C(C)(C)C)cc2NC(=O)Nc2ccc(OCCN3CCOCC3)c3ccccc23)cc1 [doramapimod]; assay: as above
Procedure, shortened: as §1

Row | Target | log2 fold change
33 | CYP24A1 (UniProt Q07973) | inactive: 0.283
34 | CYREN (UniProt Q9BWK5) | inactive: 0.051
35 | CXCL14 (UniProt O95715) | inactive: 0.166
36 | DAPK2 isoform 2 (UniProt Q9UIK4) | inactive: -0.064
37 | CYP4V2 (UniProt Q6ZWL3) | inactive: 0.049
38 | CXorf40B (UniProt Q96DE9) | inactive: -0.143
39 | CYBRD1 (UniProt Q53TN4) | inactive: 0.008
40 | DAAM2 (UniProt Q86T65) | inactive: 0.11
41 | CYTH2 (UniProt Q99418) | inactive: -0.103
42 | DCUN1D5 (UniProt Q9BTE7) | inactive: -0.005
43 | CWC22 (UniProt Q9HCG8) | inactive: -0.042
44 | CYREN isoform 4 (UniProt Q9BWK5) | inactive: 0.132
45 | CYB561 (UniProt P49447) | inactive: 0.045

compound: Cc1ccc(C(=O)N(CCCN)[C@@H](c2nc3cc(Cl)ccc3c(=O)n2Cc2ccccc2)C(C)C)cc1 [ispinesib]; assay: as above
Procedure, shortened: as §1

Row | Target | log2 fold change
46 | DAPK1 isoform 3 (UniProt P53355) | inactive: -0.23
47 | CYP24A1 (UniProt Q07973) | inactive: -0.244
48 | DCAF4 (UniProt Q8WV16) | inactive: -0.165
49 | CYREN (UniProt Q9BWK5) | inactive: 0.003
50 | CYP4V2 (UniProt Q6ZWL3) | inactive: -0.066
51 | CXorf40B (UniProt Q96DE9) | inactive: -0.025
52 | CSRP2 (UniProt Q16527) | inactive: -0.234
53 | CYBRD1 (UniProt Q53TN4) | inactive: -0.058
54 | DAAM2 (UniProt Q86T65) | inactive: -0.061
55 | CUL7 isoform 2 (UniProt Q14999) | inactive: -0.288
56 | CTIF (UniProt O43310) | inactive: -0.012
57 | CXXC5 (UniProt Q7LFL8) | inactive: 0.033
58 | CTDSP1 (UniProt Q9GZU7) | inactive: -0.269
59 | DCUN1D5 (UniProt Q9BTE7) | inactive: -0.237
60 | CYB5A (UniProt P00167) | inactive: 0.079
61 | CYB561 (UniProt P49447) | inactive: 0.011
